Assay results taken from paper PMC5344980.

Sequences of proteins named here, by UniProt entry; tags and fusion partners are left off.
UniProt Q15717, whole entry: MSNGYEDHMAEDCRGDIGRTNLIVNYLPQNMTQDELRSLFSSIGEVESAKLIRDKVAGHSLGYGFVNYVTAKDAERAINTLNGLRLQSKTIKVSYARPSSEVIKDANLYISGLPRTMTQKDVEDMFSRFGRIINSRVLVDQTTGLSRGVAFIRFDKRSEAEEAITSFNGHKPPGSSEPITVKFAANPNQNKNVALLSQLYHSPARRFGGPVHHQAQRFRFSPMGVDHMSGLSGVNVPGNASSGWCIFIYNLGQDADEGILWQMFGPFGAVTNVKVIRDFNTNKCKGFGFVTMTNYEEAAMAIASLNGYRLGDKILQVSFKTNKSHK

Key:
GST-HuR = GST-HuR (UniProt Q15717); experiment: EMSA; conditions: 3 mM MgCl2, 40 mM KCl, 5% glycerol, 2 mM DTT, 2 ug tRNA, 40 min at room temperature, 6% native acrylamide gel, recombinant protein, residues 1-326, protein details: GST, label: 5' biotin
GST = experiment: EMSA; conditions: 3 mM MgCl2, 40 mM KCl, 5% glycerol, 2 mM DTT, 2 ug tRNA, 40 min at room temperature; 6% native acrylamide gel; recombinant protein; label: 5' biotin

Question: How did the binding signal (% of Kd without PARP1) (GST-HuR; HuR PARylated by PARP1, absolute Kd only in figure) turn out when “AGUUCACUUAUUUAUUUAUCUAUGU [Cxcl2-ARE1 RNA oligo]” was run?
Answer: 40

Question: Does “AUUUAUUUAUUUAUUUAUUUAUUUA [AU-rich RNA oligo (tandem ARE)]” bind (GST-HuR; PARylated by PARP1, binding markedly enhanced, supershift by HuR and GST antibodies)?
Answer: binds

Question: Does “AUUUAUUUAUUUAUUUAUUUAUUUA [AU-rich RNA oligo (tandem ARE)]” bind (GST)?
Answer: no binding

Question: Does “CUAUGUAUUUAUUUAUUUAUUAAUU [Cxcl2-ARE2 RNA oligo]” bind (GST-HuR; PARylated by PARP1, binding enhanced)?
Answer: binds

The exact form of at least one protein or probe is not confirmed. For some of these results: Negatives hold for the conditions tested. For some of these results: Whether high values mean tight binding is not given here for every scale.
